Laboratory results from the supplement of paper PMC8728848.
This is one part of the list.

Tests used:
Assay in all cases: glycan array binding signal (z-score within array); higher = stronger binding
Conditions in all cases: glycan notation: IUPAC condensed, linker removed
[1] = target: Neu5Ac(a2-3)Gal(b1-4)GlcNAc(b1-2)[Neu5Ac(a2-3)Gal(b1-4)GlcNAc(b1-4)]Man(a1-3)[GlcNAc(b1-4)][Neu5Ac(a2-3)Gal(b1-4)GlcNAc(b1-2)[Neu5Ac(a2-3)Gal(b1-4)GlcNAc(b1-6)]Man(a1-6)]Man(b1-4)GlcNAc(b1-4)GlcNAc
How it was run: (§1)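 Glycan array binding is given as a within-array Z-score, which can be read as non-binding when negative. The arrays, 3228 of them, came from the Consortium for Functional Glycomics database and were retained only where the protein sequence was available. Z-scores were averaged across arrays of the same protein sequence at different concentrations or buffers and across linkers.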

[2] = target: Neu5Ac(a2-3)Gal(b1-4)GlcNAc(b1-2)[Neu5Ac(a2-3)Gal(b1-4)GlcNAc(b1-4)]Man(a1-3)[GlcNAc(b1-4)][Neu5Ac(a2-3)Gal(b1-4)GlcNAc(b1-4)Man(a1-6)]Man(b1-4)GlcNAc(b1-4)GlcNAc
How it was run: as §1

[3] = target: Neu5Ac(a2-3)Gal(b1-4)GlcNAc(b1-2)[Neu5Ac(a2-3)Gal(b1-4)GlcNAc(b1-6)]Man(a1-6)[Neu5Ac(a2-3)Gal(b1-4)GlcNAc(b1-2)Man(a1-3)][GlcNAc(b1-4)]Man(b1-4)GlcNAc(b1-4)GlcNAc
How it was run: as §1

[4] = target: Neu5Ac(a2-3)Gal(b1-4)GlcNAc(b1-3)Gal
How it was run: as §1

[5] = target: Neu5Ac(a2-3)Gal(b1-4)GlcNAc(b1-3)Gal(b1-3)GlcNAc
How it was run: as §1

[6] = target: Neu5Ac(a2-3)Gal(b1-4)GlcNAc(b1-3)Gal(b1-4)GlcNAc
How it was run: as §1

[7] = target: Neu5Ac(a2-3)Gal(b1-4)GlcNAc(b1-3)Gal(b1-4)GlcNAc(b1-2)Man(a1-3)[Neu5Ac(a2-3)Gal(b1-4)GlcNAc(b1-3)Gal(b1-4)GlcNAc(b1-2)Man(a1-6)]Man(b1-4)GlcNAc(b1-4)GlcNAc
How it was run: as §1

[8] = target: Neu5Ac(a2-3)Gal(b1-4)GlcNAc(b1-3)Gal(b1-4)GlcNAc(b1-3)Gal(b1-4)GlcNAc
How it was run: as §1

[9] = target: Neu5Ac(a2-3)Gal(b1-4)GlcNAc(b1-3)Gal(b1-4)GlcNAc(b1-3)Gal(b1-4)GlcNAc(b1-2)Man(a1-3)[Neu5Ac(a2-3)Gal(b1-4)GlcNAc(b1-3)Gal(b1-4)GlcNAc(b1-3)Gal(b1-4)GlcNAc(b1-2)Man(a1-6)]GalNAc
How it was run: as §1

[10] = target: Neu5Ac(a2-3)Gal(b1-4)GlcNAc(b1-3)Gal(b1-4)GlcNAc(b1-3)GalNAc
How it was run: as §1

[11] = target: Neu5Ac(a2-3)Gal(b1-4)GlcNAc(b1-3)Gal(b1-4)GlcNAc(b1-3)[Neu5Ac(a2-3)Gal(b1-4)GlcNAc(b1-3)Gal(b1-4)GlcNAc(b1-6)]GalNAc
How it was run: as §1

[12] = target: Neu5Ac(a2-3)Gal(b1-4)GlcNAc(b1-3)Gal(b1-4)GlcNAc(b1-6)[Gal(b1-3)]GalNAc
How it was run: as §1

[13] = target: Neu5Ac(a2-3)Gal(b1-4)GlcNAc(b1-3)Gal(b1-4)[Fuc(a1-3)]GlcNAc
How it was run: as §1

[14] = target: Neu5Ac(a2-3)Gal(b1-4)GlcNAc(b1-3)GalNAc
How it was run: as §1

[15] = target: Neu5Ac(a2-3)Gal(b1-4)GlcNAc(b1-3)[Neu5Ac(a2-3)Gal(b1-4)GlcNAc(b1-6)]GalNAc
How it was run: as §1

[16] = target: Neu5Ac(a2-3)Gal(b1-4)GlcNAc(b1-6)GalNAc
How it was run: as §1

[17] = target: Neu5Ac(a2-3)Gal(b1-4)GlcNAc(b1-6)[Gal(b1-3)]GalNAc
How it was run: as §1

[18] = target: Neu5Ac(a2-3)Gal(b1-4)GlcNAc(b1-6)[Neu5Ac(a2-3)Gal(b1-3)]GalNAc
How it was run: as §1

[19] = target: Neu5Ac(a2-3)Gal(b1-4)GlcNAc6S
How it was run: as §1

[20] = target: Neu5Ac(a2-3)Gal(b1-4)[Fuc(a1-3)]GlcNAc
How it was run: as §1

[21] = target: Neu5Ac(a2-3)Gal(b1-4)[Fuc(a1-3)]GlcNAc(b1-2)Man
How it was run: as §1

[22] = target: Neu5Ac(a2-3)Gal(b1-4)[Fuc(a1-3)]GlcNAc(b1-3)Gal
How it was run: as §1

[23] = target: Neu5Ac(a2-3)Gal(b1-4)[Fuc(a1-3)]GlcNAc(b1-3)Gal(b1-4)GlcNAc
How it was run: as §1

[24] = target: Neu5Ac(a2-3)Gal(b1-4)[Fuc(a1-3)]GlcNAc(b1-3)Gal(b1-4)[Fuc(a1-3)]GlcNAc(b1-3)Gal(b1-4)[Fuc(a1-3)]GlcNAc
How it was run: as §1

[25] = target: Neu5Ac(a2-3)Gal(b1-4)[Fuc(a1-3)]GlcNAc(b1-3)GalNAc
How it was run: as §1

[26] = target: Neu5Ac(a2-3)Gal(b1-4)[Fuc(a1-3)]GlcNAc(b1-6)[Gal(b1-3)]GalNAc
How it was run: as §1

[27] = target: Neu5Ac(a2-3)Gal(b1-4)[Fuc(a1-3)]GlcNAc(b1-6)[Neu5Ac(a2-3)Gal(b1-3)]GalNAc
How it was run: as §1

[28] = target: Neu5Ac(a2-3)Gal(b1-4)[Fuc(a1-3)]GlcNAc6S
How it was run: as §1

[29] = target: Neu5Ac(a2-3)Gal6S(b1-4)GlcNAc
How it was run: as §1

[30] = target: Neu5Ac(a2-3)Gal6S(b1-4)[Fuc(a1-3)]GlcNAc
How it was run: as §1

Neu5Ac(a2-3)GalNAc = target: Neu5Ac(a2-3)GalNAc
How it was run: as §1

[31] = target: Neu5Ac(a2-3)GalNAc(b1-4)GlcNAc
How it was run: as §1

[32] = target: Neu5Ac(a2-3)[GalNAc(b1-4)]Gal(b1-4)Glc
How it was run: as §1

[33] = target: Neu5Ac(a2-3)[GalNAc(b1-4)]Gal(b1-4)GlcNAc
How it was run: as §1

[34] = target: Neu5Ac(a2-3)[GalNAc(b1-4)]Gal(b1-4)GlcNAc(b1-3)GalNAc
How it was run: as §1

[35] = target: Neu5Ac(a2-3)[Neu5Ac(a2-6)]GalNAc
How it was run: as §1

Neu5Ac(a2-6)Gal = target: Neu5Ac(a2-6)Gal
How it was run: as §1

[36] = target: Neu5Ac(a2-6)Gal(b1-3)GlcNAc(b1-3)[Gal(b1-4)GlcNAc(b1-6)]Gal(b1-4)Glc
How it was run: as §1

Neu5Ac(a2-6)Gal(b1-4)Glc = target: Neu5Ac(a2-6)Gal(b1-4)Glc
How it was run: as §1

[37] = target: Neu5Ac(a2-6)Gal(b1-4)GlcNAc
How it was run: as §1

[38] = target: Neu5Ac(a2-6)Gal(b1-4)GlcNAc(b1-2)Man
How it was run: as §1

[39] = target: Neu5Ac(a2-6)Gal(b1-4)GlcNAc(b1-2)Man(a1-3)Man(b1-4)GlcNAc(b1-4)GlcNAc
How it was run: as §1

[40] = target: Neu5Ac(a2-6)Gal(b1-4)GlcNAc(b1-2)Man(a1-3)[Gal(b1-4)GlcNAc(b1-2)Man(a1-6)]Man(b1-4)GlcNAc(b1-4)GlcNAc
How it was run: as §1

[41] = target: Neu5Ac(a2-6)Gal(b1-4)GlcNAc(b1-2)Man(a1-3)[GlcNAc(b1-4)][Neu5Ac(a2-6)Gal(b1-4)GlcNAc(b1-2)Man(a1-6)]Man(b1-4)GlcNAc(b1-4)GlcNAc
How it was run: as §1

[42] = target: Neu5Ac(a2-6)Gal(b1-4)GlcNAc(b1-2)Man(a1-3)[Man(a1-6)]Man(b1-4)GlcNAc(b1-4)GlcNAc
How it was run: as §1

B1: Mermaid1 (Stilbonema majum) (protein)
chain: MGSSHHHHHHSSGLVPRGSHMAASGWLRSPQGTVVKLYRRSLSWSKADEFCKDVDGRLVVDRTADMHLFLIKNVLKEKKSRVWVGLRRTAPHSRTWIWSDGTRQNEDDLDANLWLRDEPNDAAGEEECALFMYSPWEKAWGLNDYLCRGGCRSYQFICEKWIR
- glycan array binding signal (z-score) [1]: -0.428
- glycan array binding signal (z-score) [2]: -0.247
- glycan array binding signal (z-score) [3]: -0.848
- glycan array binding signal (z-score) [4]: -0.376
- glycan array binding signal (z-score) [5]: -0.917
- glycan array binding signal (z-score) [6]: -0.754
- glycan array binding signal (z-score) [7]: 0.278
- glycan array binding signal (z-score) [8]: -0.85
- glycan array binding signal (z-score) [9]: 1.49
- glycan array binding signal (z-score) [10]: -0.766
- glycan array binding signal (z-score) [11]: 0.32
- glycan array binding signal (z-score) [12]: -0.542
- glycan array binding signal (z-score) [13]: 0.304
- glycan array binding signal (z-score) [14]: -0.493
- glycan array binding signal (z-score) [15]: -0.574
- glycan array binding signal (z-score) [16]: -0.457
- glycan array binding signal (z-score) [17]: 5.42
- glycan array binding signal (z-score) [18]: -0.446
- glycan array binding signal (z-score) [19]: -0.072
- glycan array binding signal (z-score) [20]: -0.659
- glycan array binding signal (z-score) [21]: -0.971
- glycan array binding signal (z-score) [22]: -0.744
- glycan array binding signal (z-score) [23]: -0.359
- glycan array binding signal (z-score) [24]: -0.316
- glycan array binding signal (z-score) [25]: -0.05
- glycan array binding signal (z-score) [26]: 0.711
- glycan array binding signal (z-score) [27]: -0.696
- glycan array binding signal (z-score) [28]: -0.228
- glycan array binding signal (z-score) [29]: -0.689
- glycan array binding signal (z-score) [30]: -0.314
- glycan array binding signal (z-score) (Neu5Ac(a2-3)GalNAc): -0.535
- glycan array binding signal (z-score) [31]: -0.428
- glycan array binding signal (z-score) [32]: -0.569
- glycan array binding signal (z-score) [33]: -0.469
- glycan array binding signal (z-score) [34]: -0.311
- glycan array binding signal (z-score) [35]: 1.38
- glycan array binding signal (z-score) (Neu5Ac(a2-6)Gal): -0.319
- glycan array binding signal (z-score) [36]: -0.806
- glycan array binding signal (z-score) (Neu5Ac(a2-6)Gal(b1-4)Glc): -0.714
- glycan array binding signal (z-score) [37]: -0.452
- glycan array binding signal (z-score) [38]: 0.757
- glycan array binding signal (z-score) [39]: -0.059
- glycan array binding signal (z-score) [40]: 0.924
- glycan array binding signal (z-score) [41]: -0.894
- glycan array binding signal (z-score) [42]: 0.349
